These results are taken from article PMC12463105, “NSP7 Molecular Degrader Attenuates Coronaviral Infection Through the β‐TrCP1/FBXO5 Axis” (Advanced Science, 2025).

Protein sequences, listed by entry. Tags and fused reporters are not part of them.
UniProt Q9Y297: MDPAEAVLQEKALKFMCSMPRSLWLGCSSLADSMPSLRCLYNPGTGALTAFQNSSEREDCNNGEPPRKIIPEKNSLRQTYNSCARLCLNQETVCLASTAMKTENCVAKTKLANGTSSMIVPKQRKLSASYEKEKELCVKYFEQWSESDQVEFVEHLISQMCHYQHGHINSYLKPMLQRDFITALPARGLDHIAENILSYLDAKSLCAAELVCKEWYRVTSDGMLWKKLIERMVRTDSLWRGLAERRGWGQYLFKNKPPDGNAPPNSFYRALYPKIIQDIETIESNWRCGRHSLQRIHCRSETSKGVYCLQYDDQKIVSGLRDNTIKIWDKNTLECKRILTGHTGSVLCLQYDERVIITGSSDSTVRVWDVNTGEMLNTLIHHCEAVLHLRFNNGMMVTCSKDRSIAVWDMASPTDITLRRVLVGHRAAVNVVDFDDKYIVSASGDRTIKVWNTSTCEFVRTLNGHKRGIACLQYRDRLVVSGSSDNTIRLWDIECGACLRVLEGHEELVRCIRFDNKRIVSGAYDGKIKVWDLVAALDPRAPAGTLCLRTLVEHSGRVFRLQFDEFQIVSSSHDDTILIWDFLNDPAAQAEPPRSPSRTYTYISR

No constants are given. Whether binding was seen depends on the method and setting. Binding seen in cells or lysates may run through a third protein. Some entries that bind do so weakly or less than the wild type. Where a sequence is shown, tags or fusion partners need not be part of it.

The experiment addresses T1, HA‐FBXO5 (UniProt Q9UKT4).
T1 sequence: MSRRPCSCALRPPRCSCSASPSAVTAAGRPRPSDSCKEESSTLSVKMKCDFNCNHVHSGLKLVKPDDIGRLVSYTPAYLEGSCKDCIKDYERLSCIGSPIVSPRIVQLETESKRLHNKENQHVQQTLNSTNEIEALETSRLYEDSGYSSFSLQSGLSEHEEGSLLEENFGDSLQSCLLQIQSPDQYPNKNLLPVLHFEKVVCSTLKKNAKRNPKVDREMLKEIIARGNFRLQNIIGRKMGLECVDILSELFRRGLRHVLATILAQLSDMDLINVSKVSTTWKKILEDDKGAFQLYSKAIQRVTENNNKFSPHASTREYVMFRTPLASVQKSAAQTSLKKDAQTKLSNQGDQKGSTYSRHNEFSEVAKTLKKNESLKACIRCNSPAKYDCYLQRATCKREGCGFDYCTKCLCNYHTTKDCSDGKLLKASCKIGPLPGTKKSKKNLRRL
Description: pull-down; HA‐FBXO5 pulled down from transfected BEAS‐2B lysate with HA‐tag magnetic beads, IP lysis buffer, 4 °C, 16 h; immunoblotting; also with the TAF1 inhibitor BAY‐299 or with BC24877 for 24 h. A general note: In western blotting, separated proteins are transferred to a membrane and probed.

Regarding β‐TrCP1 (from UniProt Q9Y297 1-605), the binding result was “binds”.
